{"source": "patent US7550484B2", "about": "“Chemokine receptor binding heterocyclic compounds with enhanced efficacy” (Genzyme Corporation, priority 2003, dated 2009)", "system": "white blood cells, CD34 positive progenitor cells, CFU-GM, BFU-E, CFU-GEMM progenitor cells", "conditions": "prior to and 1, 3, 6, 9 and 24 hours after injection", "protocol": "Five healthy human volunteers having initial white blood cell counts of 4,500-7,500 cells/mm^3 were used in the study. […] Blood samples were obtained via catheter prior to the dose, and at various times up to 24 hours after dosing.\nThe blood samples were evaluated for total white blood cells, CD34 positive progenitor cells (via FACS analysis) as a percentage of total white blood cells, as well as the absolute numbers per mL and cycling status of granulocyte macrophage (CFU-GM), erythroid (BFU-E), and multipotential (CFU-GEMM) progenitor cells.\nAll progenitor cell results are based on the scoring of 3 culture plates per assay per point.\nFor the progenitor cell numbers and cycling status, the numbers of CFU-GM, BFU-E and CFU-GEMM in methylcellulose cultures by stimulation of the cells with 1 Unit (U)/ml recombinant human (rhu) erythropoietin, 100 U/ml rhu granulocyte-macrophage colony stimulating factor (GM-CSF), 100 U/ml rhu interleukin-3 (IL-3) and 50 ng/ml rhu steel factor (SLF=stem cell factor (SCF)). The CFU-GM were also evaluated in agar cultures stimulated with 100 U/ml rhu GM-CSF and 50 ng/ml rhu SLF. For both types of assays, colonies were scored after 14 day incubation in a humidified atmosphere with 5% CO2 and lowered (5%) O2 tension. […]"}
{"smiles": "c1cc(CN2CCCNCCNCCCNCC2)ccc1CN1CCCNCCNCCCNCC1", "note": "[AMD3100, 1,1′-[1,4-phenylenebis(methylene)]-bis-1,4,8,11-tetra-azacyclotetradecane]", "values": [{"measurement": "Cycling state of progenitors", "result": "slow or non-cycling state"}]}
